Experimental data published in PubChem BioAssay AID192 (DTP/NCI, 2004).
The list shows only some results of the screen, not a fair sample: it is rich in T/C values a quarter to a half above the control, in often repeated tests (any T/C) and in doses without a T/C. Further doses and runs are listed elsewhere. T/C is the treated group as % of the vehicle group. Some entries give survivors of the animals treated and no T/C: the source holds a T/C of zero for them, seemingly a mark for toxic or unscored doses. Some doses without a T/C left all or most animals alive at the check, yet need not have been tolerated: the source hardly ever lists a survival T/C far under the control, and the zero likely stands for such cases as well. Survivors were counted at the toxicity check, usually on the fifth day, unless a day is given; later deaths do not show. Schedules are NCI's codes, taken here to give the interval after Q, in days (D) or hours (H), and the number of doses after X. Where survival is the endpoint, the PubChem record calls one and a half times the control and up active, and a quarter to a half above the control has no call in these data; cut-offs in other NCI protocols can differ.

Test system: BDF1 mice, B16 melanoma ip, median survival T/C
Assay: NCI In Vivo Anticancer Drug Screen. Data for tumor model B16 Melanoma (intraperitoneal) in B6D2F1 (BDF1) mice
Conditions: T/C endpoint: median survival time, higher T/C = longer survival
Summary of the method: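 Values are ratios of treated (T) to vehicle-control (C) measurements of survival or tumor size in tumor-bearing mice.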

[1] = dose: 100.0 mg/kg/injection, schedule: Q01DX009 (ip), vehicle: Klucel (hydroxypropylcellulose) (HPC)
[2] = dose: 200.0 mg/kg/injection, schedule: Q01DX009 (ip), vehicle: Klucel (hydroxypropylcellulose) (HPC)
[3] = dose: 400.0 mg/kg/injection, schedule: Q01DX009 (ip), vehicle: Klucel (hydroxypropylcellulose) (HPC)
[4] = dose: 50.0 mg/kg/injection, schedule: Q01DX009 (ip), vehicle: saline
[5] = dose: 50.0 mg/kg/injection, schedule: Q01DX009 (ip), vehicle: Klucel (hydroxypropylcellulose) (HPC)
[6] = dose: 12.5 mg/kg/injection, schedule: Q01DX009 (ip), vehicle: saline with Tween-80
[7] = dose: 25.0 mg/kg/injection, schedule: Q01DX009 (ip), vehicle: saline with Tween-80
[8] = dose: 50.0 mg/kg/injection, schedule: Q01DX009 (ip), vehicle: saline with Tween-80
[9] = dose: 100.0 mg/kg/injection, schedule: Q01DX009 (ip), vehicle: saline with Tween-80
[10] = dose: 6.25 mg/kg/injection, schedule: Q01DX009 (ip), vehicle: Klucel (hydroxypropylcellulose) (HPC)
[11] = dose: 200.0 mg/kg/injection, schedule: Q01DX009 (ip), vehicle: saline with Tween-80

In the case of O=C1C=CC(=O)c2c(Cl)ccc(O)c21, the survivor count (dose: 2.5 mg/kg/injection, schedule: Q01DX009 (ip), vehicle: Klucel (hydroxypropylcellulose) (HPC)) is reported as 10 of 10, the survivor count (dose: 5.0 mg/kg/injection, schedule: Q01DX009 (ip), vehicle: Klucel (hydroxypropylcellulose) (HPC)) is reported as 10 of 10 and the survivor count (dose: 10.0 mg/kg/injection, schedule: Q01DX009 (ip), vehicle: Klucel (hydroxypropylcellulose) (HPC)) is reported as 8 of 10.

With CC1=C/C(=N\NS(=O)(=O)c2ccc([N+](=O)[O-])cc2)CC(C)(C)C1 the T/C [1] was 139 % of control, the T/C [2] was 136 % of control and the T/C [3] was 141 % of control.

In the case of CCNC1C2CCC(C2)C1c1ccccc1 (stereo not drawn), the survivor count [4] is reported as 5 of 10, the survivor count (dose: 100.0 mg/kg/injection, schedule: Q01DX009 (ip), vehicle: saline) is reported as 0 of 10 and the survivor count (dose: 200.0 mg/kg/injection, schedule: Q01DX009 (ip), vehicle: saline) is reported as 0 of 10. For the same molecule, the survivor count (dose: 400.0 mg/kg/injection, schedule: Q01DX009 (ip), vehicle: saline) was 0 of 10.

CC(C)CC(C)(c1ccc(O)cc1)c1ccc(O)cc1 was tested, and the survivor count (dose: 400.0 mg/kg/injection, schedule: Q01DX009 (ip), vehicle: saline with Tween-80) was 0 of 10.

In the case of Nc1nc2nc[nH]c2c(=O)[nH]1, the survivor count (dose: 400.0 mg/kg/injection, schedule: Q01DX009 (ip), vehicle: suspension in saline) is reported as 1 of 10 and the survivor count (dose: 800.0 mg/kg/injection, schedule: Q01DX009 (ip), vehicle: suspension in saline) is reported as 0 of 10.

In the case of CC[C@@]1(O)C[C@H](OC2CC(N(C)C)C(OC3CC(O)C(O[C@@H]4O[C@@H](C)C(=O)C=C4N)C(C)O3)C(C)O2)c2c(cc3c(c2O)C(=O)c2c(O)ccc(O)c2C3=O)[C@H]1C(=O)OC (stereo partly drawn), the T/C (dose: 0.1 mg/kg/injection, schedule: Q01DX001 (ip), vehicle: saline) is reported as 136 % of control, the T/C (dose: 0.2 mg/kg/injection, schedule: Q01DX001 (ip), vehicle: saline) is reported as 128 % of control and the T/C (dose: 0.4 mg/kg/injection, schedule: Q01DX001 (ip), vehicle: saline) is reported as 133 % of control. The T/C (dose: 0.8 mg/kg/injection, schedule: Q01DX001 (ip), vehicle: saline) was 144 % of control and the survivor count (dose: 3.0 mg/kg/injection, schedule: Q01DX009 (ip), vehicle: saline) was 10 of 10.

With CCOC(=O)C(CC(C)C)NC(=O)C(Cc1ccc(N(CCCl)CCCl)cc1)NC(C)=O (stereo not drawn) the T/C (dose: 16.0 mg/kg/injection, schedule: Q01DX009 (ip), vehicle: saline with Tween-80) was 135 % of control, the survivor count (dose: 32.0 mg/kg/injection, schedule: Q01DX009 (ip), vehicle: saline with Tween-80) was 10 of 10 and the T/C (dose: 32.0 mg/kg/injection, schedule: Q01DX009 (ip), vehicle: saline) was 138 % of control. The survivor count (dose: 64.0 mg/kg/injection, schedule: Q01DX009 (ip), vehicle: saline with Tween-80) was 5 of 10, the T/C (dose: 64.0 mg/kg/injection, schedule: Q01DX009 (ip), vehicle: saline) was 135 % of control and the survivor count (dose: 128.0 mg/kg/injection, schedule: Q01DX009 (ip), vehicle: saline) was 6 of 10. For the same molecule, the survivor count (dose: 256.0 mg/kg/injection, schedule: Q01DX009 (ip), vehicle: saline) was 3 of 10.

CC1(C)N=C(N)N=C(N)N1c1cccc(CCCCc2ccc(Cl)c(S(=O)(=O)F)c2)c1 was tested, and the survivor count (dose: 25.0 mg/kg/injection, schedule: Q01DX009 (ip), vehicle: Klucel (hydroxypropylcellulose) (HPC)) was 3 of 10 and the survivor count [5] was 1 of 10.

CCOP(=O)(N1CC1(C)C)N1CC1(C)C (stereo not drawn) was tested, and the T/C [4] was 136 % of control, the survivor count (dose: 80.0 mg/kg/injection, schedule: Q01DX009 (ip), vehicle: saline) was 10 of 10 and the survivor count (dose: 120.0 mg/kg/injection, schedule: Q01DX009 (ip), vehicle: saline) was 10 of 10.

CCCCC(CCC)(CCN)CCCC was tested, and the survivor count (dose: 8.0 mg/kg/injection, schedule: Q01DX009 (ip), vehicle: saline sonified) was 6 of 6.

In the case of CCCCCCCCCCCCCC(=O)CCC, the survivor count [1] is reported as 10 of 10, the survivor count (dose: 200.0 mg/kg/injection, schedule: Q01DX009 (ip), vehicle: other) is reported as 8 of 10 and the survivor count (dose: 400.0 mg/kg/injection, schedule: Q01DX009 (ip), vehicle: other) is reported as 10 of 10.

In the case of O=C1NC(c2ccccc2)N=C2Oc3ccccc3C=C12 (stereo not drawn), the T/C [6] is reported as 125 % of control, the T/C [7] is reported as 130 % of control and the T/C [8] is reported as 144 % of control. For the same molecule, the survivor count [8] was 9 of 10 and the survivor count [9] was 3 of 10.

In the case of CO[C@H]1C[C@@H]2CC[C@@H](C)[C@@](O)(O2)C(=O)C(=O)N2CCCC[C@H]2C(=O)O[C@H]([C@H](C)C[C@@H]2CC[C@@H](O)[C@H](OC)C2)CC(=O)[C@H](C)C=C(C)[C@@H](O)[C@@H](OC)C(=O)[C@H](C)C[C@H](C)/C=C/C=C/C=C1C, the T/C [6] is reported as 144 % of control, the T/C [7] is reported as 139 % of control and the T/C [8] is reported as 125 % of control. The T/C [9] was 139 % of control.

CN1C(=O)CN=C(c2ccccc2)c2cc(Cl)ccc21 was tested, and the survivor count (dose: 0.2 mg/kg/injection, schedule: Q01DX009 (ip), vehicle: saline) was 10 of 10, the survivor count (dose: 0.78 mg/kg/injection, schedule: Q01DX009 (ip), vehicle: Klucel (hydroxypropylcellulose) (HPC)) was 10 of 10 and the survivor count (dose: 1.56 mg/kg/injection, schedule: Q01DX009 (ip), vehicle: Klucel (hydroxypropylcellulose) (HPC)) was 9 of 10. The survivor count (dose: 3.12 mg/kg/injection, schedule: Q01DX009 (ip), vehicle: Klucel (hydroxypropylcellulose) (HPC)) was 10 of 10 and the survivor count [10] was 10 of 10.

CC(Br)C(=O)NC(Cc1ccccc1)C(=O)O (stereo not drawn) was tested, and the survivor count [11] was 10 of 10.

In the case of Cc1cccc(OCC(=O)O)c1, the survivor count [8] is reported as 10 of 10, the survivor count [9] is reported as 10 of 10 and the survivor count [11] is reported as 9 of 10.

In the case of C[Se]c1ncnc2c1c(C#N)cn2C1OC(CO)C(O)C1O (stereo not drawn), the survivor count [10] is reported as 10 of 10 and the survivor count [5] is reported as 0 of 10.

CCC(C)(C[NH-])C[NH-].[Cl][Pt+2][Cl] was tested, and the survivor count (dose: 2.0 mg/kg/injection, schedule: Q01DX009 (ip), vehicle: carboxymethylcellulose (CMC)) was 5 of 10 on day 10.

With Cn1c(=O)c2[nH]c(Cc3ccsc3)nc2n(C)c1=O the survivor count [1] was 10 of 10, the survivor count [2] was 10 of 10 and the survivor count [3] was 3 of 10.
